Results are given in words; binding and its absence hold for the method and conditions named. Binding seen in cells or lysates may run through a third protein. A yes stands for co-enrichment or nearness to the bait. Other partners may have been found. Where a sequence is shown, tags or fusion partners need not be part of it.
Molecular target: T1, Rv3143 fused with enhanced green fluorescent protein (eGFP) (M. tuberculosis) (UniProt P9WGL7)
T1 sequence: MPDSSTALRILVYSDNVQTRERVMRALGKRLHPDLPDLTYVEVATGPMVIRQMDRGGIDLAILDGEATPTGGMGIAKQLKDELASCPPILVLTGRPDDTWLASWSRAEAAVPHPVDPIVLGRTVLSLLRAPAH
Assay: affinity purification with mass spectrometry

Protein sequences, listed by entry. Tags and fused reporters are not part of them. Lines headed by an entry give the natural chain unless they say otherwise; changes in a name come on top.
UniProt P9WIV9: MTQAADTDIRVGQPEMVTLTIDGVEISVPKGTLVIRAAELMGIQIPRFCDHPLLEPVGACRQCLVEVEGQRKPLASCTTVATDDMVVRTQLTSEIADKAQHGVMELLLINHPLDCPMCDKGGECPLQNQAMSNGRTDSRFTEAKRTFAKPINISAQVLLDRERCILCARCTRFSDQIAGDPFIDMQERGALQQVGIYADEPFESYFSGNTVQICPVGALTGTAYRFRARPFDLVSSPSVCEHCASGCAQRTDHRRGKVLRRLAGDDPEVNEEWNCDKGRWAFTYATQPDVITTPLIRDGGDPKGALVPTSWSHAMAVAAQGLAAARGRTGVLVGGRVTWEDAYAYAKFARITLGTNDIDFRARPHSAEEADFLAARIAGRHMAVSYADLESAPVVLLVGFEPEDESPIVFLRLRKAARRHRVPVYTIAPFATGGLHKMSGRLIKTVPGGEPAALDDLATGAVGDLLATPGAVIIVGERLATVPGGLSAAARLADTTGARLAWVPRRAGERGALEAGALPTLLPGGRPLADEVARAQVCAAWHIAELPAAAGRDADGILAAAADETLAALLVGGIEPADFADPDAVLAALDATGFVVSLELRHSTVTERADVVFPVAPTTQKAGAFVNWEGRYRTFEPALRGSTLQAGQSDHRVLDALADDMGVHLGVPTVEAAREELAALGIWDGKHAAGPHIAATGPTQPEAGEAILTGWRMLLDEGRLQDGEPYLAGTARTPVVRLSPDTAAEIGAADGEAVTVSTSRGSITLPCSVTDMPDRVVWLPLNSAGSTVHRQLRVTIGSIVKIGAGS
UniProt P9WIW9: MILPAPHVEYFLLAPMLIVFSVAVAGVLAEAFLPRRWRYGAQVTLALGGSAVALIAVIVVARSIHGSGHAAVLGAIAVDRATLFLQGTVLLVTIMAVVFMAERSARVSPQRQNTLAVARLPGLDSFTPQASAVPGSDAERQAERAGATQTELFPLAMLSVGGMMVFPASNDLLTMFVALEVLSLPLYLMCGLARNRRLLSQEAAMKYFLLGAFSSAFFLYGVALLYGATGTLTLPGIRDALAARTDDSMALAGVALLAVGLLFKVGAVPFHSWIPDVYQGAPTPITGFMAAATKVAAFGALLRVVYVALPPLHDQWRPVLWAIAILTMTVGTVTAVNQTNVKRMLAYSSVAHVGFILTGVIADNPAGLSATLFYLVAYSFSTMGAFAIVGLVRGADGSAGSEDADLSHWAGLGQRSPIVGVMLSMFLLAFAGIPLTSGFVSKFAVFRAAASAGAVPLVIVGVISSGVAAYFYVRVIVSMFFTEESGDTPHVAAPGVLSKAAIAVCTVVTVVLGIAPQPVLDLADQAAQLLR

NuoG (from UniProt P9WIV9)
binding: binds

NuoN (from UniProt P9WIW9)
binding: binds

Reference: paper PMC9274095
